The structures appear in SMILES notation.

For this assay, the system named is LUHMES cells. Briefly: MitoMet (UKN4b) neurite outgrowth assay. It counts as cell-based. Conditions: Homo sapiens; benchmark response 25%, neurite area, 24 h exposure, three independent experiments; read-out: BMC25 neurite outgrowth. On the procedure: Figure 1 (A) A strategy scheme to assess metabolite-mediated hazard in NAMs used for neurotoxicity or developmental neurotoxicity. Parent and metabolite compounds are tested separately in the respective assay. This strategy is applicable when there is prior knowledge of metabolite formation. A decision rule based on the relative toxicities (X) of the parent and metabolite may be applied to decide whether next-generation risk assessment (NGRA) should be applied to the metabolite. The value of X may be defined according to the problem formulation and the NAM used. (B) An assay scheme of the neurite outgrowth assay used here for exemplification: Proliferating LUHMES cells were replated one day before differentiation was initiated (day −1). […] Neurite outgrowth and viability were determined 24 h later, using automated high content imaging. […] In each independent experiment, the technical replicates were measured and averaged. A benchmark response (BMR) of 25% was used as specified in the detailed assay description, and the respective benchmark concentration (BMC25) was determined. […] Similar images are used for neurite quantification. […]
The MitoMet neurite outgrowth assay was performed as previously described. […] Neurite outgrowth and viability were determined 24 h later, using automated high content imaging. […]

`COCC(=O)Nc1cc(Sc2ccccc2)ccc1N/C(=N\C(=O)OC)NC(=O)OC` [Febantel]: the IC25 was found to be 11.7 µM.

Source of the values: publication PMC12428754, “Testing Strategies for Metabolite-Mediated Neurotoxicity” (International Journal of Molecular Sciences, 2025).
